Data on seven compounds can be found in patent publication US5618726A, “Biodegradable azo dyes” (priority 1994, dated 1997).

The data set concerns Phanerochaete chrysosporium. In words: Substrate removal / decolorization by P. chrysosporium culture. In kind it is cell-based. Conditions: 300 ppm. The method, then:
Environ. Microbiol., 1981, 42:290-296), with the addition of 75 mg adenine (6-aminopurine) and 27 mg L-phenylalanine-per-liter. This addition accelerated the growth of the fungus without inhibiting ligninase activity. […] […] Cultures were incubated at 37° C. for 7 to 15 days with shaking (250 rpm). Solid agar media were also employed.
Take `COc1cc(N=Nc2ccc(S(=O)(=O)O)cc2)cc(OC)c1O` [compound 4]: the “Toxicity / inhibition of the fungus by the dye” value (“Toxicity / inhibition” for short) was “do not exhibit a similar degree of inhibition”.

`O=S(=O)(O)c1ccc(N=Nc2cc(F)c(O)c(F)c2)cc1` [compound 12]: the “Toxicity / inhibition” value is recorded as “began to be toxic”.

With `Cc1cc(N=Nc2ccc(S(=O)(=O)O)cc2)ccc1O` [compound 5], the “Toxicity / inhibition” value is given as “do not exhibit a similar degree of inhibition”. Next, `Cc1cc(O)c(N=Nc2ccc(S(=O)(=O)O)cc2)cc1C` [compound 7]: “began to be toxic”. As for `O=S(=O)(O)c1ccc(N=Nc2c(O)ccc3ccccc23)cc1` [compound 31], the “Toxicity / inhibition” value was “began to be toxic”. Consider `Cc1cc(N=Nc2ccc(S(=O)(=O)O)cc2)cc(C)c1O` [compound 3], for which the “Toxicity / inhibition” value was “becomes more toxic”. In the case of `O=S(=O)(O)c1ccc2c(N=Nc3ccccc3)c(O)ccc2c1` [compound 19], the “Toxicity / inhibition” value is listed as “began to be toxic”.
